Results as given in US20090023727A1, “PHTHALAZINONE DERIVATIVES” (priority 2007, published 2009).
Some entries share one result that the patent states for a list of compounds.

Tested on: HeLa cells
Test: Potentiation Factor (PF50) of MMS growth inhibition, SRB assay
Assay type: cell-based
Conditions: ratio IC50 control cell growth / IC50 cell growth + PARP inhibitor, with MMS, compound at 30 nM

Structure (SMILES) | mean PF50 at 30 nM
O=C(NCC1CC1)C1CCN(C(=O)c2cc(Cc3n[nH]c(=O)c4c3CCCC4)ccc2F)CC1 [17c, N-(cyclopropylmethyl)-1-[2-fluoro-5-[(4-oxo-5,6,7,8-tetrahydro-3H-phthalazin-1-yl)methyl]benzoyl]piperidine-4-carboxamide] | at least 2
CC(C)CNC(=O)C1CCN(C(=O)c2cc(Cc3n[nH]c(=O)c4c3CCCC4)ccc2F)CC1 [17d, 1-[2-fluoro-5-[(4-oxo-5,6,7,8-tetrahydro-3H-phthalazin-1-yl)methyl]benzoyl]-N-(2-methylpropyl)piperidine-4-carboxamide] | at least 2
O=C(c1cc(Cc2n[nH]c(=O)c3c2CCCC3)ccc1F)N1CCC(OC2CCCC2)CC1 [10o] | at least 2
CN(C1CCN(C(=O)c2cc(Cc3n[nH]c(=O)c4c3CCCC4)ccc2F)CC1)S(=O)(=O)C1CC1 [compound 14, N-(1-(2-fluoro-5-((4-oxo-3,4,5,6,7,8-hexahydrophthalazin-1-yl)methyl)benzoyl)piperidin-4-yl)-N-methylcyclopropanesulfonamide] | at least 2
O=C(NC1CCN(C(=O)c2cc(Cc3n[nH]c(=O)c4c3CCCC4)ccc2F)CC1)c1ccccc1 [compound 19, N-(1-(2-Fluoro-5-((4-oxo-3,4,5,6,7,8-hexahydrophthalazin-1-yl)methyl)benzoyl)piperidin-4-yl)benzamide] | at least 2
CC(C)OC1CCN(C(=O)c2cc(Cc3n[nH]c(=O)c4c3CCCC4)ccc2F)CC1 [compound 20, 4-(4-Fluoro-3-(4-isopropoxypiperidine-1-carbonyl)benzyl)-5,6,7,8-tetrahydrophthalazin-1(2H)-one] | at least 2
CC(C)OC1CCN(C(=O)c2cccc(Cc3n[nH]c(=O)c4c3CCCC4)c2)CC1 [compound 21, 4-(3-(4-isopropoxypiperidine-1-carbonyl)benzyl)-5,6,7,8-tetrahydrophthalazin-1(2H)-one] | at least 2

Same assay, conditions: ratio IC50 control cell growth / IC50 cell growth + PARP inhibitor, with MMS, compound at 200 nM

Structure (SMILES) | mean PF50 at 200 nM
O=C(c1cccc(Cc2n[nH]c(=O)c3c2CCCC3)c1)N1CCN(C(=O)C2CC2)CC1 [5a] | at least 2
O=C(c1cccc(Cc2n[nH]c(=O)c3c2CCCC3)c1)N1CCC(OC2CCCC2)CC1 [5k] | at least 2
CS(=O)(=O)N1CCN(C(=O)c2cc(Cc3n[nH]c(=O)c4c3CCCC4)ccc2F)CC1 [10r] | at least 2
CC(C)(C)OC1CCN(C(=O)c2cccc(Cc3n[nH]c(=O)c4c3CCCC4)c2)CC1 [5l] | at least 2
O=C(c1cc(Cc2n[nH]c(=O)c3c2CCCC3)ccc1F)N1CCC(OC2CCCC2)CC1 [10o] | at least 2
O=C(c1cccc(Cc2n[nH]c(=O)c3c2CCCC3)c1)N1CCNCC1 [5h] | at least 2
